{"sequences": {"note": "Sequences of proteins named here, by UniProt entry; tags and fusion partners are left off.", "UniProt P18901, whole entry": "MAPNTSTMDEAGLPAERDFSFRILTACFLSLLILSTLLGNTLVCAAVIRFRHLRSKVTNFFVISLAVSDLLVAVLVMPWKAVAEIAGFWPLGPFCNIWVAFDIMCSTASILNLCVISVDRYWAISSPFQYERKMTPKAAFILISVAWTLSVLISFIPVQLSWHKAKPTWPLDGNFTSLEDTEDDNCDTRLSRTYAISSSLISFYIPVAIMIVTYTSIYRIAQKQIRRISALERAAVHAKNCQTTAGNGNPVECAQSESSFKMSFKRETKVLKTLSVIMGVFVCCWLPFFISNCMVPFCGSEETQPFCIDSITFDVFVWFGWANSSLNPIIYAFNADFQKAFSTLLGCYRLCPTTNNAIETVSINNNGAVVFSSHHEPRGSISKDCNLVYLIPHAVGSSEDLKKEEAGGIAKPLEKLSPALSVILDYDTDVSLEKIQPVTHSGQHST"}, "source": "patent US5130117A", "about": "“Radiohalogenated benzazepine derivatives and method of imaging dopamine receptors therewith” (Trustees of the University of Pennsylvania, priority 1991, dated 1992)", "target": "T1, dopamine D-1 receptor (rat striatal membranes) (Rattus norvegicus, UniProt P18901)", "T1 construct": "Striatal tissues were excised, pooled and homogenized; from tissue; host or cells: striatum of male Sprague-Dawley rats", "test": "Competition: inhibition of [^125 I]TISCH binding to rat striatal membranes", "conditions": "read-out: ki (mean + SEM)", "experimental": "Male Sprague-Dawley rats (200-250g) were decapitated, and the brains were removed and placed in ice. Striatal tissues were excised, pooled and homogenized in 100 volumes(w/v) of ice-cold Tris-HCl buffer (50 mM), pH 7.4. The homogenates were centrifuged at 20,000×g for 20 min. The resultant pellets were rehomogenized in the same buffer and centrifuged again. The final pellets were resuspended in assay buffer containing: 50 mM Tris buffer pH 7.4, 120 mM NaCl, 5 mM KCl, 2mM CaCl2 and 1 mM MgCl2.\nThe binding assays were performed by incubating 50 μl of tissue preparations containing 40-60μg of protein with appropriate amounts of [^125 l]FISCH ligand and competitors in a total volume of 0.2 ml of the assay buffer. After an incubation period of 20 min at 37° C. (with stirring), the samples were rapidly filtered in the cell harvester (Brandel M-24R) under vacuum through Whatman GF/B glass fiber filters pretreated with 0.2% protamine sulfate and washed with 3×5ml of cold (4° C.) 50 mM Tris-HCl buffer, pH 7.4. […] The filters were counted in a gamma counter (Beckman 5500) at an efficiency of 70%.\nBoth Scatchard and competition experiments were analyzed using the iterative non-linear least squares curve-fitting program LIGAND."}
{"smiles": "CC(C)NC[C@H](O)COc1cccc2ccccc12", "note": "(racemic) [Propanolol, reference compound]", "values": [{"measurement": "Ki", "value": "> 3", "unit": "µM"}]}
